Experimental data taken from patent publication US12129222B2, “Production of bitter principle derivatives” (Julius-Maximilians-Universitaet Wuerzburg, priority 2016, dated 2024).
“And” between values parts separate entries of the source, which are not always exact repeats. Equal values may be shown once.

Assay: Taste testing by means of an electronic tongue (electric potentials of aqueous solutions)
Settings: for taste indicated by the electrical potentials: electronic tongue, compared with denatonium benzoate

SMILES	taste indicated by the electrical potentials	potential of aqueous solution, electronic tongue (sensor SB2AC0, 0.05 mM) [mV]	potential of aqueous solution, electronic tongue (sensor SB2AC0, 0.1 mM) [mV]	potential of aqueous solution, electronic tongue (sensor SB2AC0, 0.5 mM) [mV]	potential of aqueous solution, electronic tongue (sensor SB2AC0, 1 mM) [mV]	potential of aqueous solution, electronic tongue (sensor SB2AN0, 0.05 mM) [mV]	potential of aqueous solution, electronic tongue (sensor SB2AN0, 0.1 mM) [mV]	potential of aqueous solution, electronic tongue (sensor SB2AN0, 0.5 mM) [mV]	potential of aqueous solution, electronic tongue (sensor SB2AN0, 1 mM) [mV]	potential of aqueous solution, electronic tongue (sensor SB2BT0, 0.05 mM) [mV]	potential of aqueous solution, electronic tongue (sensor SB2BT0, 0.1 mM) [mV]	potential of aqueous solution, electronic tongue (sensor SB2BT0, 0.5 mM) [mV]	potential of aqueous solution, electronic tongue (sensor SB2BT0, 1 mM)
CCOC(=O)CNC(=O)c1ccc(C[N+](CC)(CC)CC(=O)Nc2c(C)cccc2C)cc1.[Br-] [2-(2,6-Dimethylphenylamino)N-(4-(2-ethoxy-2-oxoethylcarbamoyl)benzyl)-N,N-diethyl-2-oxoethane Ammonium Bromide]	strongly bitter	~−93	~−88	~−52	~−42	~−70	~−60	~−30	~−10	~−95	~−94	~−35	~5 mV
CC[N+](CC)(CC(=O)Nc1c(C)cccc1C)Cc1cccc(C(=O)OC)c1.[Br-] [2-(2,6-dimethylphenylamino)-N,N-diethyl-N-(3-(methoxycarbonyl)benzyl)-2-oxoethane Ammonium Bromide]	strongly bitter	~−75	~−65	~−32	~−20	~−90	~−88.5	~−60	~−21.5	~−73	~−72	~7	~44 mV
CC[N+](CC)(CC(=O)Nc1c(C)cccc1C)Cc1ccccc1.O=C([O-])c1ccccc1 [denatonium benzoate, benzyldiethyl(2,6-xylylcarbamoyl)methylammonium benzoate, reference compound]													~47 mV and ~42 mV
